Measured values reported in paper PMC12711892, “A genome-wide CRISPR screen identifies GRA38 as a key regulator of lipid homeostasis during Toxoplasma gondii adaptation to lipid-rich conditions” (Nature Communications, 2025).

By UniProt entry, the sequences of proteins in these tests, tags left out.
UniProt A0A7J6JXD8, entry or part of it: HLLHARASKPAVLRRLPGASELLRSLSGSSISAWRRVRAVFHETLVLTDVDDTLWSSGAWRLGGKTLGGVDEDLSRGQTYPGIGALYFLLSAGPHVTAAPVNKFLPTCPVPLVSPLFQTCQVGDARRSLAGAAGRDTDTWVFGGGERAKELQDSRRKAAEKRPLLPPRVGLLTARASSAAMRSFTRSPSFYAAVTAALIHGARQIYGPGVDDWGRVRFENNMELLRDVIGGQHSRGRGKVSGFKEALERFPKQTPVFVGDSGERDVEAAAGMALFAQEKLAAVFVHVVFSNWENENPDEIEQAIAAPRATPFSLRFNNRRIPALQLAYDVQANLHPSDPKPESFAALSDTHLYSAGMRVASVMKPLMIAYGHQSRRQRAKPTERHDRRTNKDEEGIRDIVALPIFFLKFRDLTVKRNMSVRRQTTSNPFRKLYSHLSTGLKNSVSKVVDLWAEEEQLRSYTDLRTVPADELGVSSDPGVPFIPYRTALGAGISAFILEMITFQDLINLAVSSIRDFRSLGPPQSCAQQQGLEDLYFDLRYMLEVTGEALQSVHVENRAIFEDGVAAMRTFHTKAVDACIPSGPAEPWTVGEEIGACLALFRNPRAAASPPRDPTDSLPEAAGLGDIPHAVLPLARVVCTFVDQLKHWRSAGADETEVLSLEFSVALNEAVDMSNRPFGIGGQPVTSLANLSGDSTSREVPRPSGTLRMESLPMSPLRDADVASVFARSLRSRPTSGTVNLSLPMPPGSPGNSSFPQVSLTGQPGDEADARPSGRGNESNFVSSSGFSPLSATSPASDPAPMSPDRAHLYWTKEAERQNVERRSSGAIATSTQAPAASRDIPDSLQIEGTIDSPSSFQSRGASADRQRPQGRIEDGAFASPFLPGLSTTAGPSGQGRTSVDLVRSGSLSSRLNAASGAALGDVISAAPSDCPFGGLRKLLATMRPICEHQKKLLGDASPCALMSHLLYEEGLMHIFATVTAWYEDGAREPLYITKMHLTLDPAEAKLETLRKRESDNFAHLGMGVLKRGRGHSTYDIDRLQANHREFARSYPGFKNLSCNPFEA

Biological target: T1, GRA38-6xHis (Toxoplasma gondii, UniProt A0A7J6JXD8)
T1 construct: gene TGRH88_051660; signal peptide (first 23 residues) removed; C-terminal 6xHis in pET-29b(+), codon-optimised, E. coli BL21; tag kept
Assay: malachite green phosphate release assay (PAP activity)
Assay type: biochemical
Settings: read-out: % inhibition at 1 mM

Work on CC(C)NCC(O)COc1cccc2ccccc12 (stereo not shown) [propranolol] yielded an inhibition at 1000 µM of ~29%.
